## Primary screen of a compound library

Chains of the proteins cited; added tags and fusions are not shown. Residues count along the entry.
UniProt I6X8D2, whole entry: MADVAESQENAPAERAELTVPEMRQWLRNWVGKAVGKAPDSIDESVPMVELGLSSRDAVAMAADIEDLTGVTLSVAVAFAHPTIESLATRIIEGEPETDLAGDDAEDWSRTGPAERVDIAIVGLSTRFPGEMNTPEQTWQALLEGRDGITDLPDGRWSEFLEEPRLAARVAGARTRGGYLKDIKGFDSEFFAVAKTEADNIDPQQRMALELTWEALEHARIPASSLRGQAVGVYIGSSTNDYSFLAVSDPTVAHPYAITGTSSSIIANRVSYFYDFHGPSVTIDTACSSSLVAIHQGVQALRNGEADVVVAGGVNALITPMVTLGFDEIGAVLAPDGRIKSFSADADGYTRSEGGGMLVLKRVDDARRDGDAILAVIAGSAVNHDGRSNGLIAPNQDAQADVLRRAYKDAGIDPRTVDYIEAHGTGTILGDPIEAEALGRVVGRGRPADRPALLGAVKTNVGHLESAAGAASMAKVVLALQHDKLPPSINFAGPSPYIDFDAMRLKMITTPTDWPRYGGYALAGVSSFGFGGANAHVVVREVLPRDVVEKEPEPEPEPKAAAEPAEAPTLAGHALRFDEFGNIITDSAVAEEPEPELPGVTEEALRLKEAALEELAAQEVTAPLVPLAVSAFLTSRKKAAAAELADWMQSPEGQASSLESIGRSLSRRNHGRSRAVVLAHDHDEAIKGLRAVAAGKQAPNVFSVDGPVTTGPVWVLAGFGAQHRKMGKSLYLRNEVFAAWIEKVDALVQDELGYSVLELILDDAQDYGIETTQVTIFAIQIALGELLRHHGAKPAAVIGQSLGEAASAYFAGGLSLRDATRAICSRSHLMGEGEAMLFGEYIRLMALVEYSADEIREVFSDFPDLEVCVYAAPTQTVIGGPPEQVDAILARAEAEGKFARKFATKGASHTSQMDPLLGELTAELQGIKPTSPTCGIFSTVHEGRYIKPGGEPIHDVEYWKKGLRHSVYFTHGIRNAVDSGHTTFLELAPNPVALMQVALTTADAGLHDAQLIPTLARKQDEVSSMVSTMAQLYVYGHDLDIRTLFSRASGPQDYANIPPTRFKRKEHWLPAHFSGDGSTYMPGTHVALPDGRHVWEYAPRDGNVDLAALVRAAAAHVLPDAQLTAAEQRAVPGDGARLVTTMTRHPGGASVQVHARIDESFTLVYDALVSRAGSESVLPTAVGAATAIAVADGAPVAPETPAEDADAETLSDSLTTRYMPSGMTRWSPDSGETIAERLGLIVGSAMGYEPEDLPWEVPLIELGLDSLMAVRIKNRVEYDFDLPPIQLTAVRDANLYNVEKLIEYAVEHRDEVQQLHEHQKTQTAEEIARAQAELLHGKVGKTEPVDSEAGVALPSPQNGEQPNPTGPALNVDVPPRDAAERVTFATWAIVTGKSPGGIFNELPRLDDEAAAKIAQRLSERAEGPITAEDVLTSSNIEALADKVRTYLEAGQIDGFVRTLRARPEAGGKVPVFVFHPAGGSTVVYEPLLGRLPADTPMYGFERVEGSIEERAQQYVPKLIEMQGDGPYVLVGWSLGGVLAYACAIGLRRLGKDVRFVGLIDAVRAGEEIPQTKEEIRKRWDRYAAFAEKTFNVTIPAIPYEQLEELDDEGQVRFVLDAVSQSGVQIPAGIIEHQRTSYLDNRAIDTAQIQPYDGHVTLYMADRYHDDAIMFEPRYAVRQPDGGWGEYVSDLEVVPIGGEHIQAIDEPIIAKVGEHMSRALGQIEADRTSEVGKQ
UniProt Q8IDJ8, 1-583: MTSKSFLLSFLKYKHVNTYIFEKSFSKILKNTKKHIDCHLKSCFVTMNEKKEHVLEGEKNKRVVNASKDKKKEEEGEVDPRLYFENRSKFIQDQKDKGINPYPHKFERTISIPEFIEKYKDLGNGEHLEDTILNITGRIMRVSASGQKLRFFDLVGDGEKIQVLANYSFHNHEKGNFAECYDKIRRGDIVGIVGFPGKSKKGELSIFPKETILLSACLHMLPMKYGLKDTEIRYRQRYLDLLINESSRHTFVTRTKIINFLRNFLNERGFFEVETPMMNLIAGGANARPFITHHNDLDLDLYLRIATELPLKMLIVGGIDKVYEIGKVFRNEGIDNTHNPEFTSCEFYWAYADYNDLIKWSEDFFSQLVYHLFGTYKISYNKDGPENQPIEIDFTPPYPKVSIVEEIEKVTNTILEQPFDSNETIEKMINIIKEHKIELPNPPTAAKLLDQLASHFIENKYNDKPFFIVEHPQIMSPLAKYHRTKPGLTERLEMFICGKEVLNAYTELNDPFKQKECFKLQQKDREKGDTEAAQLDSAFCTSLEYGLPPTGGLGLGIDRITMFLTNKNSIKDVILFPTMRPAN
UniProt P9WNZ1, whole entry: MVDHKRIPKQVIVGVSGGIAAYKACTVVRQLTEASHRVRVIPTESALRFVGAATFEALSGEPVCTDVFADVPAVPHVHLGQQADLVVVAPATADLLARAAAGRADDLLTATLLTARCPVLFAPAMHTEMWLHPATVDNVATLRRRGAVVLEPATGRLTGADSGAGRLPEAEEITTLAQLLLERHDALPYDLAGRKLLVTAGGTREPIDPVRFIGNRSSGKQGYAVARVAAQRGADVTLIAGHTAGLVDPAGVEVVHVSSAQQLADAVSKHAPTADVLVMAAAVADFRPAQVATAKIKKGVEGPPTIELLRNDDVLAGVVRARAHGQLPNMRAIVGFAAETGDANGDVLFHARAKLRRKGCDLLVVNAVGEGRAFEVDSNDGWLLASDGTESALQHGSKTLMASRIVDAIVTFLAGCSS

Toxoplasma: 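Assay of Toxoplasma gondii numbers, read through their beta-galactosidase reporter with a colour substrate. Concentration: 10 µM. Higher reads as fewer parasites (inferred from which compounds were picked for retests). About 67,000 compounds were tested under these conditions; 0.38% (about 260) showed 50% or more at least once.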
Pks13 thioesterase: 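Polyketide synthase Pks13, Mycobacterium tuberculosis (UniProt I6X8D2). Enzyme assay of the thioesterase domain of polyketide synthase 13; the read-out is not stated. Concentration: 30 µM. The record gives no direction; the compounds picked for IC50 retests had high values, so higher reads as stronger inhibition. About 67,000 compounds were tested under these conditions; 0.46% (about 300) showed 50% or more at least once.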
PfKRS1: 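Lysine-tRNA ligase, Plasmodium falciparum 3D7 (UniProt Q8IDJ8). Enzyme assay of the cytosolic lysyl-tRNA synthetase in 384-well plates, read by luminescence. Concentration: 30 µM. Direction is inferred from only a few compounds that gave an IC50; most scored high, so higher reads as stronger inhibition. Of about 69,000 compounds tested this way, about 49 (0.071%) reached 50% or more in at least one test.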
CoaBC: 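Enzyme assay of CoaBC with a phosphate dye (Biomol Green) read at 650 nm. Target: Coenzyme A biosynthesis protein CoaBC, Mycobacterium tuberculosis (UniProt P9WNZ1). Concentration: 30 µM. Direction is inferred from only a few compounds that gave an IC50; most scored high, so higher reads as stronger inhibition. Most strong results did not repeat in a second test. About 67,000 compounds were tested under these conditions; 0.06% (about 40) showed 50% or more at least once.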

Results are given as percent effect. The controls that fix the scale are not given in the record; negative values are as filed. The compounds are a random part of those screened. A dash means the value is not listed here; it may have been measured.

structure,Toxoplasma,Pks13 thioesterase,PfKRS1,CoaBC
CCc1ncc2c(n1)CN(Cc1cccc3c1OCCO3)CC2,6.671,-3.983,7.166,2.811
Cc1cc(C2CCCN2C(=O)NCc2cccnc2N(C)C)on1 (stereo unspecified),-,-14.03,-7.643,3.567
Cc1cc(C)n(CC(=O)N2CCCCC2CCc2cccs2)c(=O)n1 (stereo unspecified),21.87,-4.525,5.655,1.01
Cc1nc(CCNC(=O)NCC(O)c2cccc(Cl)c2)cs1 (stereo unspecified),-1.517,-24.25,3.177,5.449
N#Cc1c(F)cccc1Nc1cnn(CC(=O)N2CCOCC2)c1,19.51,17.46,5.132,-0.8963
O=C(O)C(F)(F)F.O=C(O)C(F)(F)F.[H][C@@]12CCN(Cc3ccc(C)o3)C[C@]1([H])[C@@H](CN1CCCC1)OC2,1.62,-,-,-
C1CC(N2C[C@@H]3COC[C@]3(COCC3CCOCC3)C2)C1,-,-9.767,3.406,3.951
CC(C)N1CCCC(CNC(=O)CN(C)S(=O)(=O)c2ccccc2)C1 (stereo unspecified),5.393,-15.24,5.613,2.42
c1cnnc(N2CCCC2CNCc2cccs2)c1 (stereo unspecified),12.72,-24.94,1.259,-7.507
Cc1cccn2c(CC(=O)N3CCC(Oc4ncccn4)CC3)cnc12,12.27,-33.37,2.005,3.422
Cc1cc(C)cc(CNC(c2ccccc2)c2nccn2C)c1 (stereo unspecified),3.958,-16.47,0.9221,12.08
CN(C)CC(=O)N1CCN(c2cc(N3CCCC3CO)ncn2)CC1 (stereo unspecified),1.836,-3.361,0.1789,2.42
N#Cc1cccnc1NCCNC(=O)N1CCSCC1,-4.551,13.31,3.349,-6.731
CCC(=O)NCC(=O)NC(C)c1sc(-c2ccccc2F)nc1C (stereo unspecified),5.202,-2.79,2.556,-0.4464
CCN(C)c1ncnc2c1CCN(c1ccc(C)nn1)CC2,7.016,-12.83,4.164,-1.98
Cn1cc(-c2cnc(N3CCOCC3)nc2)cc1C(=O)N1CCOCC1,2.052,-22.65,5.303,2.85
Cc1cc(CCCC(=O)NC2CCN(C)C2=O)c(C)s1 (stereo unspecified),6.313,-28.37,3.784,7.131
CC(C)n1cc(CN2CCCN(C(=O)c3cccn3C)CC2)cn1,-11.88,10.96,0.4722,1.222
Cc1cccc(C(=O)N2CC[C@@H]3CN(c4ncccn4)CCO[C@@H]3C2)c1,-,-4.277,2.754,4
CCc1ccc2nc(C)cc(C(=O)NC3CCNC3=O)c2c1 (stereo unspecified),-5.672,7.629,6.444,6.748
O=C1N(CCCc2ccccc2)CCCC1(O)CNCC1CCCCC1 (stereo unspecified),4.928,18.87,3.081,-47.64
Cc1c(CCC(=O)Nc2ccc(Br)cn2)cnn1C,6.699,0.9899,0.6426,-4.046
CCN(C)c1ncnc2c1CCN(Cc1ccc(OC)cc1)CC2.O=C(O)C(F)(F)F.O=C(O)C(F)(F)F,-0.4014,-,-,-
CN(Cc1ccccc1O)CC1CCCN(CCc2ccc(Cl)cc2)C1 (stereo unspecified),1.627,-15.14,0.6751,2.545
CN1CCC2(C=C(C(=O)N(C)C)c3ccccc32)CC1,-2.57,0.08037,4.325,0
COc1cc(C)c(CNC(C)c2csc(C)n2)cc1OC (stereo unspecified),16.72,7.409,0.524,-5.16
O=C(CN1CCOC1=O)N1CCC2(CCc3ccccc32)CC1,-4.851,-23.49,3.346,-9.504
O=C(C1CC=CC1)N1CCCn2nnc(CNc3ncccn3)c2C1,14.27,0.9586,4.785,5.122
O=C(O)C(F)(F)F.[H][C@@]12CN(C(=O)c3ccoc3)C[C@@]1([H])N(Cc1cccnc1)C(=O)CO2,-2.257,-,-,-
COCCC1CN(c2nc(-c3ccccc3)nc3c2CCNC3)CCO1 (stereo unspecified),25.79,11.72,5.113,7.394
[H][C@@]12CN(CC(CC)CC)C[C@]1([H])OCCN2Cc1cnn(C)c1,-5.047,-,-,-
NC(=O)Cn1ccnc1C1CCCN(Cc2nc3ccccc3s2)C1 (stereo unspecified),5.978,7.696,3.083,1.72
CC1(c2ccccc2)CCC(=O)N(CCN2CCOCC2)C1 (stereo unspecified),-23.39,-10.6,2.517,-2.372
O=C(NC1CC(=O)N(C2Cc3ccccc3C2)C1)c1ccsc1 (stereo unspecified),1.913,-34.99,0.815,-1.927
CN(Cc1ccncc1)C(=O)CCNS(=O)(=O)c1cccnc1,12.56,-6.245,9.995,2.066
CCOc1nnc(CN(Cc2ccccc2)CC(O)c2ccco2)s1 (stereo unspecified),2.161,-6.942,7.57,4.032
CNC(=O)c1ccccc1NCc1ncnn1C,6.235,7.262,6.558,3.713
Clc1ccc(Cc2nc(CNCCn3cccn3)cs2)cc1,4.798,0.6004,2.139,0.5612
O=C(O)C(F)(F)F.[H][C@@]12COC[C@]1([H])[C@@H](OCC1CCOCC1)CN2Cc1ccoc1,10.98,-,-,-
CN(Cc1nnc(C2CC2)n1C)S(=O)(=O)c1ccc(F)c(C#N)c1,-26.39,-4.539,5.803,3.797
O=C(c1ccncc1)N1CCC2(CC1)CC(Oc1cccnc1)CO2 (stereo unspecified),-6.7,-14.9,2.185,0.3861

The last 2 entries again:

{"structure": "CN(Cc1nnc(C2CC2)n1C)S(=O)(=O)c1ccc(F)c(C#N)c1", "Toxoplasma": -26.39, "Pks13 thioesterase": -4.539, "PfKRS1": 5.803, "CoaBC": 3.797}
{"structure": "O=C(c1ccncc1)N1CCC2(CC1)CC(Oc1cccnc1)CO2", "stereo": "stereo unspecified", "Toxoplasma": -6.7, "Pks13 thioesterase": -14.9, "PfKRS1": 2.185, "CoaBC": 0.3861}

From ChEMBL document CHEMBL3988442, “University of Dundee, Small-Polar-MMV Screening Library” (2021).